Measured data: PubChem BioAssay AID504784 (Drosophila RNAi Screening Center, 2011)

Purpose: 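Fly genes whose silencing alters how much lipid cells keep in droplets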 (primary screen)
Cell system: Drosophila Kc167 embryonic cells
Knock-down reagent: long dsRNA against Drosophila genes, about 250 ng dsRNA per well
Time to read-out: 4 days
Conditions: cells fed 400 µM oleic acid bound to BSA
Measurement: 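Microscope images give a droplet-to-nucleus area ratio, taken as log and converted to a screen-wide B-score; higher values mean greater lipid storage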
Scale: droplet/nuclear area B-score: higher = more stored lipid (overstorage)
The deposit covers about 17,000 reagents; this is an unselected part of those that have a named target and a result. 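Each column is one replicate's B-score; the combined score over replicates was not deposited, so single values may mislead.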 A plus sign joins genes that one reagent is predicted to hit. Not all columns of the deposit are shown.

Against CG6729 [DRSC02984], the values are droplet/nuclear area B-score, replicate 1 = 0.0355.
After knock-down of CG6729 [DRSC22793], the screen gave droplet/nuclear area B-score, replicate 1 = -1.24.
Silencing of Neurochondrin [DRSC12580] gave: droplet/nuclear area B-score, replicate 1 = 1.83.
Knock-down of scrib [DRSC13774] came out at: droplet/nuclear area B-score, replicate 1 = 0.0281.
Knock-down of scrib [DRSC15809] resulted in: droplet/nuclear area B-score, replicate 1 = -0.183.
scrib [DRSC17051] scored droplet/nuclear area B-score, replicate 1 = -1.48.
PPO2 [DRSC07102] gave droplet/nuclear area B-score, replicate 1 = 0.0768.
Depletion of Fer1HCH [DRSC16671] gave: droplet/nuclear area B-score, replicate 1 = 0.318.
Knock-down of CG14441 [DRSC17934] resulted in: droplet/nuclear area B-score, replicate 1 = 0.705.
After knock-down of Ntl [DRSC03003], the screen gave droplet/nuclear area B-score, replicate 1 = -0.485.
After knock-down of CG12828 [DRSC06177], the screen gave droplet/nuclear area B-score, replicate 1 = -0.745.
Stat92E [DRSC16870] gave droplet/nuclear area B-score, replicate 1 = -0.387.
Pdp [DRSC17825] showed droplet/nuclear area B-score, replicate 1 = -0.462.
For CG13590 [DRSC04226], the entry reads droplet/nuclear area B-score, replicate 1 = -1.98.
Silencing of CG32523 [DRSC20510] gave: droplet/nuclear area B-score, replicate 1 = -0.041.
PIG-F [DRSC11069] gave droplet/nuclear area B-score, replicate 1 = -0.184.
For CycT [DRSC11124], the entry reads droplet/nuclear area B-score, replicate 1 = -0.0984.
After knock-down of CycT [DRSC23304] the results were droplet/nuclear area B-score, replicate 1 = -0.133.
For COX7C [DRSC06831], the values are droplet/nuclear area B-score, replicate 1 = 1.58.
Against CG14342 [DRSC00372], the values are droplet/nuclear area B-score, replicate 1 = -0.866.
CG30496 [DRSC06805] scored droplet/nuclear area B-score, replicate 1 = 0.683.
Myo31DF [DRSC03376] showed droplet/nuclear area B-score, replicate 1 = -3.45.
Knock-down of Myo31DF [DRSC22702] gave: droplet/nuclear area B-score, replicate 1 = 0.035.
With knock-down of ix [DRSC06325] the results were droplet/nuclear area B-score, replicate 1 = 1.41.
speck [DRSC04608] scored droplet/nuclear area B-score, replicate 1 = -1.85.
Against robl [DRSC07674], the entry reads droplet/nuclear area B-score, replicate 1 = -0.339.
Silencing of Obsc [DRSC04301] gave: droplet/nuclear area B-score, replicate 1 = 1.44.
After knock-down of Obsc [DRSC04302], the record shows droplet/nuclear area B-score, replicate 1 = -0.172.
With knock-down of Obsc [DRSC04303] the results were droplet/nuclear area B-score, replicate 1 = -0.0587.
Depletion of Obsc [DRSC04430] resulted in: droplet/nuclear area B-score, replicate 1 = -0.379.
Silencing of Obsc [DRSC22422] gave: droplet/nuclear area B-score, replicate 1 = 0.12.
Ppi1 [DRSC15421] scored droplet/nuclear area B-score, replicate 1 = 0.688.
Knock-down of ZnT33D [DRSC02591] gave: droplet/nuclear area B-score, replicate 1 = 0.446.
Against CG14937 [DRSC02419] the deposit lists droplet/nuclear area B-score, replicate 1 = 2.42.
For CG34357 [DRSC12211] the deposit lists droplet/nuclear area B-score, replicate 1 = 0.67.
Knock-down of CG34357 [DRSC12238] gave: droplet/nuclear area B-score, replicate 1 = 0.563.
Against CG34357 [DRSC12334], the values are droplet/nuclear area B-score, replicate 1 = -1.19.
With knock-down of CG34357 [DRSC23031], the record shows droplet/nuclear area B-score, replicate 1 = 0.022.
Against Gr64d + Gr64e [DRSC08446], the values are droplet/nuclear area B-score, replicate 1 = -0.598.
CG15395 [DRSC00409] gave droplet/nuclear area B-score, replicate 1 = 1.48.
